This test is described as follows: qHTS Assay for Modulators of Lamin A Splicing. Particulars: HeLa LMNA splicing GFP/RFP minigene ratio, 48 h. The method, boiled down: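 Read-out is the ratio of GFP to DsRed2 object intensity, acquired by 488 nm laser-scanning cytometry on HeLa lamin A-EGFP minigene reporter cells. Compound incubation 48 hrs at 37 °C in Opti-MEM with 2% FBS; DMSO 0.5% final.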
A general note: In qHTS, concentration-response curves come from the screen itself.

Setting [1] is: measured here: RFP viability control channel.
[2] abbreviates: measured here: GFP splicing reporter channel.

Some of the results follow. Shown are side measurements of this screen, not its main read-out; they come without a call. The list favours compounds with an active or inconclusive main result. Potencies come from curve fits of mixed quality, noted in brackets.

Consider `Cc1nc2ccccc2c(=O)n1-c1ccc(NC(=O)c2cccc([N+](=O)[O-])c2)cc1`, for which the AC50 under setting [1] was 3.16 µM [rising, single point].
Take `COc1ccc(CNC(=O)CN(Cc2ccc(Cl)cc2)S(=O)(=O)c2ccccc2)cc1`: the half-maximal activity concentration (AC50) under setting [1] was 35.5 µM [rising, single point].
In the case of `CNC(=O)CSc1nccn1Cc1ccc(Cl)cc1`, the AC50 under setting [1] is 0.316 µM [falling, partial curve, poor fit].
Turning to `CCOc1ccccc1Nc1nnc(SCc2ccc(C(=O)OC)o2)s1`, the AC50 under setting [2] is 35.5 µM [rising, single point].
As to `CCn1cc(Br)c(C(=O)Nc2ccc(F)c(Cl)c2)n1`, the AC50 reads like this: under setting [2], 3.16 µM [rising, full curve, poor fit]; under setting [1], 5.01 µM [rising, partial curve, poor fit].
Regarding `C=C1c2cccc(O)c2C(O)=C2C(=O)[C@@]3(O)C(O)=C(C(N)=O)C(=O)[C@@H](N(C)C)[C@@H]3[C@@H](O)[C@H]12`, the AC50 was 0.355 µM [falling, single point] under setting [2] and 0.00316 µM [falling, full curve, poor fit] under setting [1].
As to `CSc1ncc(C(=O)N2CCN(c3cc(C)ccc3C)CC2)c(C)n1`, under setting [1], the AC50 is 0.0224 µM [falling, partial curve, poor fit].
For `O=C(COc1ccccc1Cl)Nc1ccc(C(=O)c2ccc(C(=O)O)cc2)cc1`, the AC50 under setting [2] is 2 µM [falling, partial curve, poor fit] and the AC50 under setting [1] was 0.891 µM [falling, full curve, poor fit].
In the case of `CC(C)Cn1c2c(c(O)c(C(=O)Nc3ncccc3O)c1=O)CCCC2`, the AC50 under setting [1] is 17.8 µM [rising, partial curve, poor fit].
For `OC1(c2cccc(C(F)(F)F)c2)CCN(Cc2nnnn2CCc2ccccc2)CC1`, the AC50 under setting [1] is 35.5 µM [rising, single point].
Take `O=C1CC(c2ccco2)Cc2nc(N3CCN(Cc4ccc5c(c4)OCO5)CC3)ncc21` (configuration not stated): the AC50 was 12.6 µM [rising, single point] under setting [2] and 22.4 µM [rising, single point] under setting [1].
In the case of `CCC(=O)Nc1cc(C)c(NC(=O)c2ccco2)cn1`, the AC50 under setting [1] was 5.62 µM [rising, single point].
As for `Cc1ccc(/C=C2\CCCC3=C2NC(=S)NC3c2ccc(C)cc2)cc1` (configuration not stated), the AC50 under setting [2] was 12.6 µM [rising, single point] and the AC50 under setting [1] was 25.1 µM [rising, partial curve].
As to `CC(=O)NC(Cc1cccc(F)c1)C(=O)NC1CCN(C(=O)c2ccc(C)cc2)CC1` (configuration not stated), the concentration at half-maximal activity (AC50) under setting [1] was 10 µM [falling, partial curve, poor fit].
Take `O=C(CSc1nccn1C1CCCC1)Nc1ccc(C(F)(F)F)cc1`: the AC50 under setting [1] was 0.126 µM [falling, full curve, poor fit].
As for `O=C(NO)c1ccccc1O`, the AC50 under setting [2] is 11.2 µM [rising, partial curve, poor fit] and the AC50 under setting [1] is 0.0178 µM [falling, full curve, poor fit].
With `O=C(c1ccccc1)c1ccc(C(=O)N2CCN(c3ccc(F)cc3)CC2)o1`, the AC50 under setting [1] was 22.4 µM [rising, partial curve].
Consider `COc1ccc(NC(=O)Nc2ccccc2C(N)=O)cc1OC`, for which the AC50 was 17.8 µM [rising, partial curve] under setting [2] and 35.5 µM [rising, single point] under setting [1].
For `CCn1c(=O)c([N+](=O)[O-])c(NCCc2ccc(OC)c(OC)c2)c2ccccc21`, the AC50 was 2 µM [rising, full curve] under setting [2] and 7.94 µM [rising, partial curve] under setting [1].
As for `O=C(Cc1ccc(Cl)cc1Cl)Nc1cccc(S(=O)(=O)Nc2ccccc2F)c1`, the AC50 reads like this: under setting [2], 14.1 µM [rising, partial curve, poor fit]; under setting [1], 12.6 µM [rising, partial curve].
As to `CCC(C(=O)Nc1ccncc1)c1ccccc1` (configuration not stated), the AC50 runs as follows: under setting [2], 10 µM [rising, partial curve]; under setting [1], 15.8 µM [rising, partial curve].
For `Cc1ccc(Cn2c(=O)c3c(nc4n3CCN4Cc3ccco3)n(C)c2=O)cc1`, the AC50 under setting [1] is 17.8 µM [rising, single point].
On to `CCC(C)NC(=O)CSc1nc2cc3c(cc2c(=O)n1CCCCCC(=O)NCc1ccc2c(c1)OCO2)OCO3` (configuration not stated), for which, under setting [1], the AC50 is 11.2 µM [falling, partial curve, poor fit].
For the molecule `Cc1cc(C)c2c(C)c(C(=O)NCc3ccncc3)oc2c1`, the AC50 under setting [1] was 15.8 µM [rising, partial curve, poor fit].
For `Cc1ccc(CNC(=O)C2CCN(S(=O)(=O)c3ccc4[nH]c(=O)ccc4c3)CC2)cc1`, the AC50 under setting [2] was 22.4 µM [falling, partial curve, poor fit].
As for `O=C(Nc1cccc(S(=O)(=O)N2CCCC2)c1)c1cc(-c2ccccn2)nc2ccccc12`, the AC50 is, setting by setting: under setting [2], 0.0355 µM [falling, partial curve, poor fit]; under setting [1], 0.00316 µM [falling, full curve, poor fit].
As for `Cc1cc(-c2csc(NC(=O)c3cccc(S(=O)(=O)N(C)C)c3)n2)c(C)n1-c1ccccc1`, the AC50 reads like this: under setting [2], 10 µM [rising, partial curve]; under setting [1], 12.6 µM [rising, partial curve].
On to `C#CCOC(=O)c1ccccc1C(=O)n1nnc2ccccc21`, for which the AC50 under setting [1] was 3.55 µM [rising, single point].
Turning to `CCNc1ncc2nc(-c3cccs3)c(=O)n(CCc3ccccc3)c2n1`, the AC50 is 12.6 µM [falling, partial curve] under setting [2] and 12.6 µM [falling, partial curve] under setting [1].
Consider `COc1cc(/C=C2\CC/C(=C\c3cc(OC)c(O)c(OC)c3)C2=O)cc(OC)c1O`, for which the AC50 under setting [2] was 22.4 µM [falling, partial curve, poor fit] and the AC50 under setting [1] was 11.2 µM [falling, partial curve].
As to `CCOc1ccccc1Nc1sc(C(=O)c2ccccc2)c(N)c1C(=O)Nc1ccccc1`, the AC50 under setting [2] is 11.2 µM [falling, partial curve, poor fit] and the AC50 under setting [1] was 11.2 µM [falling, partial curve, poor fit].
In the case of `Cc1occc1-c1nnc(SCCCC(=O)c2ccc(F)cc2)n1C`, the AC50 under setting [1] is 15.8 µM [rising, single point].

As usually defined, the AC50 is the midpoint of the concentration-response curve, whichever way the signal moves.

Values taken from PubChem BioAssay AID1487 (National Center for Advancing Translational Sciences (NCATS), 2009).
